# Literature values as cited in article PMC4501119, “Cholestenoic acid, an endogenous cholesterol metabolite, is a potent γ-secretase modulator” (Molecular Neurodegeneration, 2015).
# Read-outs that look alike come from different tables or passages of the source.
# Design: method as in PMID 25271621
# Conditions: cited from earlier work
structure (smiles),measurement,setting,value
"CC(CCC[C@@H](C)C(=O)O)[C@H]1CCC2C3CC=C4C[C@@H](O)CC[C@]4(C)C3CC[C@@]21C (stereo partly drawn) [Cmpd 2a, 25(R)-cholestenoic acid]",mouse brain CA level,before loss of Cyp7b1,~ 30 nM
same,mouse brain CA level,loss of Cyp7b1,~ 300 nM
